Experimental findings from article doi:10.1101/298737 are described below.

Sequences of proteins named here, by UniProt entry; tags and fusion partners are left off.
UniProt Q15910: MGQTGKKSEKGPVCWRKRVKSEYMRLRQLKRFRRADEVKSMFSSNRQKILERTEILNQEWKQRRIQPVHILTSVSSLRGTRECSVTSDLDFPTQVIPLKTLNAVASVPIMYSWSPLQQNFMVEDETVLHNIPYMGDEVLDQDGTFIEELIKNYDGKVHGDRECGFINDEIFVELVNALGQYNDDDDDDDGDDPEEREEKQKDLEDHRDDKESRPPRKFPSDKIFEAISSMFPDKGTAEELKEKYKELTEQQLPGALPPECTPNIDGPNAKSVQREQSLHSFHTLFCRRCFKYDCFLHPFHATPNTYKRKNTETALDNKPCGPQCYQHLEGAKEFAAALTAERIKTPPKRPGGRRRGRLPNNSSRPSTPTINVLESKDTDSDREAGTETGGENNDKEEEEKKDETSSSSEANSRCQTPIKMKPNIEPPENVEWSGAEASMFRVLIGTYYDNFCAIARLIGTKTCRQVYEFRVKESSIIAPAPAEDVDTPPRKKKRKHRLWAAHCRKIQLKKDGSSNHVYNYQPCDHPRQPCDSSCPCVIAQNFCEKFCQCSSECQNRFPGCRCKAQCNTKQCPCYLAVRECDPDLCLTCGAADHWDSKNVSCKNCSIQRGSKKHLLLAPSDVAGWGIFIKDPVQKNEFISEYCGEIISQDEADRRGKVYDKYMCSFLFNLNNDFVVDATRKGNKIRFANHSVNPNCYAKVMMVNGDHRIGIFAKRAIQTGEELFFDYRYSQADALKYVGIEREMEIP
UniProt P06730: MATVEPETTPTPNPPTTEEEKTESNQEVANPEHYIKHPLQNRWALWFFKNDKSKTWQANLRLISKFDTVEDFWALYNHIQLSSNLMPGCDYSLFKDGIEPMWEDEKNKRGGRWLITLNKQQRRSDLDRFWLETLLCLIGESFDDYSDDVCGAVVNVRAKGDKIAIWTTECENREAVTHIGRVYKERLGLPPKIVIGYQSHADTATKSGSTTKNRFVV
UniProt P11940: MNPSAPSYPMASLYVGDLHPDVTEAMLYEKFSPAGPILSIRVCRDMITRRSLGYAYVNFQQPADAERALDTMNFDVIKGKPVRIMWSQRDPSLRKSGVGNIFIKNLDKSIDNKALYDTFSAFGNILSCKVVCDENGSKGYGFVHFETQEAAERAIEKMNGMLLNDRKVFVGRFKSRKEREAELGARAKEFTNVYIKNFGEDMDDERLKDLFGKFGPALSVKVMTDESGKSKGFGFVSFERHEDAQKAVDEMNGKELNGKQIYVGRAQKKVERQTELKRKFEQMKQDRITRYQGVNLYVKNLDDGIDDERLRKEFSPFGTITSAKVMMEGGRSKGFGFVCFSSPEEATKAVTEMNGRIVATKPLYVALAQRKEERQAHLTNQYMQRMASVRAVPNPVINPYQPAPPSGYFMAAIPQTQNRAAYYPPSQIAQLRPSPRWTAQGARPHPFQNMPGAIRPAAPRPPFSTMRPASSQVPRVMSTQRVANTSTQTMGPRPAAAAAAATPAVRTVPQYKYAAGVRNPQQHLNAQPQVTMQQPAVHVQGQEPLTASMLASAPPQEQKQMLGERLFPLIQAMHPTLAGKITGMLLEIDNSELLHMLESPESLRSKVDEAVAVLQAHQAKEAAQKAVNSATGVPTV

Results are given in words; binding and its absence hold for the method and conditions named. In cells and extracts the contact can be indirect. Here binding means that the protein was enriched with, or labelled near, the bait; the list need not be complete. No binding means not detected with the bait.

For the assay, the target named is SFB-tagged EZH2 (human) (UniProt Q15910). The assay is described as follows: affinity purification with mass spectrometry.

Take eIF4E (from UniProt P06730 1-217): the binding entry is reported as “no binding”.

Consider “poly(A)-binding protein-1 (from UniProt P11940 1-636)”, for which the binding entry is given as “binds”.
